This experiment deals with fat mass and obesity-associated protein (FTO), endogenous in BMDMs (mouse (endogenous in BMDMs)) (UniProt Q8BGW1). Kind of experiment: affinity purification with mass spectrometry; BMDMs with or without LPS for 12 h, RIPA lysate; anti-FTO plus protein-A/G magnetic beads; bands cut from SDS-PAGE, LC-MS.

Amino acid sequences for entries named in this document (tags omitted).
UniProt Q8BGW1: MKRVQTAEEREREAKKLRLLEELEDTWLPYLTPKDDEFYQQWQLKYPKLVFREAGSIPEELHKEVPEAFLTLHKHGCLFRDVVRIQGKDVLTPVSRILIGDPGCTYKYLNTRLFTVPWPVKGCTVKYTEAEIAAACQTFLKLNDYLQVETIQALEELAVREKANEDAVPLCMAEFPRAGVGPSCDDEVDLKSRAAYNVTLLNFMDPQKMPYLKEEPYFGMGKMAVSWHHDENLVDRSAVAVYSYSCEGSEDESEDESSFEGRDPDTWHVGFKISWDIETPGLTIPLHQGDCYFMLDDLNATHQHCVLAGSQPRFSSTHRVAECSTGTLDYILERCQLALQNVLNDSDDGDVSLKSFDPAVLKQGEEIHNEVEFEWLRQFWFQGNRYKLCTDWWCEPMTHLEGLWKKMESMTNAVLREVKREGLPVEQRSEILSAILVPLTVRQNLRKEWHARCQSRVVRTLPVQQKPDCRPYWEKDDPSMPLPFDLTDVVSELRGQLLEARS

Results are given in words; binding and its absence hold for the method and conditions named. In cells and extracts the contact can be indirect. A yes stands for co-enrichment or nearness to the bait. Other partners may have been found.

B1: tripartite motif family member TRIM21, endogenous in mouse macrophages (enzyme, UniProt Q62191 1-470)
chain: MSPSTTSKMSLEKMWEEVTCSICLDPMVEPMSIECGHCFCKECIFEVGKNGGSSCPECRQQFLLRNLRPNRHIANMVENLKQIAQNTKKSTQETHCMKHGEKLHLFCEEDGQALCWVCAQSGKHRDHTRVPIEEAAKVYQEKIHVVLEKLRKGKELAEKMEMDLTMQRTDWKRNIDTQKSRIHAEFALQNSLLAQEEQRQLQRLEKDQREYLRLLGKKEAELAEKNQALQELISELERRIRGSELELLQEVRIILERSGSWNLDTLDIDAPDLTSTCPVPGRKKMLRTCWVHITLDRNTANSWLIISKDRRQVRMGDTHQNVSDNKERFSNYPMVLGAQRFSSGKMYWEVDVTQKEAWDLGVCRDSVQRKGQFSLSPENGFWTIWLWQDSYEAGTSPQTTLHIQVPPCQIGIFVDYEAGVVSFYNITDHGSLIYTFSECVFAGPLRPFFNVGFNYSGGNAAPLKLCPLKM
With B1, the binding result was “binds”.

The record behind these values is article PMC12240770.
